Data taken from patent publication US20260069728A1, “MULTI-TARGETING COMPOUND AND USE THEREOF” (Chengdu Shetai Medical Technology Co., Ltd., priority 2023, published 2026).
Part of at least one peptide drawing is inferred or uncertain, most often the ends. Some compounds share one wording; it may come from a single statement.

Key:
[1] = Determination of hydrophilicity/lipophilicity (n-octanol/water distribution coefficient); assay type: physicochemical; conditions: HEPES buffer pH=7.4 / n-octanol
Protocol: (§1) 10 μL of Purified ^68Ga-SDYD01 was diluted to 500 μL with HEPES buffer (pH=7.4), then 500 μL of n-octanol was added. The mixture was vortexed for 30 min and then centrifuged. Subsequently, 450 μL each of the aqueous and organic phases were taken and centrifuged again. Then, 100 μL each of the aqueous and organic phases were taken, and the radioactivity was measured using a γ counter to calculate the n-octanol/water distribution coefficient (Log Do/w). The measured Log Do/w value for ^68Ga-SDYD01 was −2.54±0.01, and for ^177Lu-SDYD01 was −2.55±0.05.
as §1, with “purified ^68Ga-SDYD02” for “Purified ^68Ga-SDYD01”, “^68Ga-SDYD02” for “^68Ga-SDYD01”, “−2.47±0.03,” for “−2.54±0.01,”, “^177Lu-SDYD02” for “^177Lu-SDYD01”, “−2.35±0.02.” for “−2.55±0.05.”
as §1, with “purified ^68Ga-SDYD05” for “Purified ^68Ga-SDYD01”, “^68Ga-SDYD05” for “^68Ga-SDYD01”, “−2.37±0.02,” for “−2.54±0.01,”, “^177Lu-SDYD05” for “^177Lu-SDYD01”, “−2.46±0.05.” for “−2.55±0.05.”
as §1, with “purified ^68Ga-SDYD06” for “Purified ^68Ga-SDYD01”, “^68Ga-SDYD06” for “^68Ga-SDYD01”, “−1.84±0.03,” for “−2.54±0.01,”, “^177Lu-SDYD06” for “^177Lu-SDYD01”, “−1.94±0.08.” for “−2.55±0.05.”
as §1, with “purified ^68Ga-SDYD03” for “Purified ^68Ga-SDYD01”, “^68Ga-SDYD03” for “^68Ga-SDYD01”, “−1.72±0.04,” for “−2.54±0.01,”, “^177Lu-SDYD03” for “^177Lu-SDYD01”, “−1.52±0.05.” for “−2.55±0.05.”
as §1, with “purified ^68Ga-SDYD04” for “Purified ^68Ga-SDYD01”, “^68Ga-SDYD04” for “^68Ga-SDYD01”, “−1.63±0.07,” for “−2.54±0.01,”, “^177Lu-SDYD04” for “^177Lu-SDYD01”, “−1.39±0.03.” for “−2.55±0.05.”
as §1, with “purified ^68Ga-SDYD07” for “Purified ^68Ga-SDYD01”, “^68Ga-SDYD07” for “^68Ga-SDYD01”, “−2.94±0.15,” for “−2.54±0.01,”, “^177Lu-SDYD07” for “^177Lu-SDYD01”, “−2.71±0.15.” for “−2.55±0.05.”
10 μL of purified ^68Ga-SDYD08 was diluted to 500 μL with HEPES buffer (pH=7.4), then 500 μL of n-octanol was added. […]

[2] = Competitive experiment of radioligand against endogenous free amino acids (histidine, cysteine); assay type: physicochemical; conditions: 37° C., 2 hours
Protocol: (§2) To an EP tube containing 150 μL of PBS buffer, 150 μL of H2O, and 50 μL of ^68Ga-SDYD01 was added 50 μL of cysteine hydrochloride solution (10 mM) or histidine solution (10 mM). The mixture was vortexed and incubated at 37° C. for 2 hours, after which samples were taken for radio-HPLC analysis.
This study utilized different concentrations of histidine and cysteine solutions to investigate whether histidine (or cysteine) competes with ^68Ga-SDYD01 for metal chelation.
To an EP tube containing 150 μL of PBS buffer, 150 μL of H2O, and 50 μL of ^68Ga-SDYD02 was added 50 μL of cysteine hydrochloride solution (10 mM) or histidine solution (10 mM). The mixture was vortexed and incubated at 37° C. for 2 hours, after which samples were taken for radio-HPLC analysis.
This study utilized different concentrations of histidine and cysteine solutions to investigate whether histidine (or cysteine) competes with ^68Ga-SDYD02 for metal chelation.
as §2, with “^68Ga-SDYD05” for “^68Ga-SDYD01”, “analysis. This study utilized different concentrations of histidine and cysteine solutions to investigate whether histidine (or cysteine) competes with ^68Ga-SDYD05 for metal chelation.” for “analysis.”
as §2, with “^68Ga-SDYD06” for “^68Ga-SDYD01”, “analysis. This study utilized different concentrations of histidine and cysteine solutions to investigate whether histidine (or cysteine) competes with ^68Ga-SDYD06 for metal chelation.” for “analysis.”

| Compound | n-octanol/water distribution coefficient (Log Do/w) [1] | competitive chelation in the presence of histidine and cysteine (in words) [2] | radiochemical purity after incubation with cysteine ([2]; cysteine hydrochloride solution (10 mM)) [%] | radiochemical purity after incubation with histidine ([2]; histidine solution (10 mM)) [%] |
| --- | --- | --- | --- | --- |
| CCCCCC(=O)N[C@@H]1CSCc2cc(CSCCNC(=O)[C@@H](CCCCNC(=O)CN3CCN(CC(=O)O)CCN(CC(=O)O)CCN(CC(=O)O)CC3)NC(=O)COCCOCCNC(=O)COCCOCCNC(=O)CCN3C(=O)CC(SCCNC(=O)CCC(=O)N[C@@H](CCCNC(=N)N)C(=O)N[C@@H](CCCNC(=N)N)C(=O)N[C@@H](Cc4ccc5ccccc5c4)C(=O)N[C@@H]4CSSC[C@@H](C(=O)N[C@@H](CCCNC(=N)N)C(N)=O)NC(=O)[C@H](CCCNC(N)=O)NC(=O)[C@H](CCCNC(=N)N)NC(=O)[C@H](Cc5ccc(O)cc5)NC(=O)[C@@H]5CCCN5C(=O)[C@H](CCCCN)NC(=O)[C@H](CCCCN)NC(=O)[C@H](CCCNC(N)=O)NC(=O)[C@H](Cc5ccc(O)cc5)NC4=O)C3=O)cc(c2)CSC[C@@H](C(=O)O)NC(=O)[C@H](Cc2ccccc2)NC(=O)[C@H](CCC(N)=O)NC(=O)C([C@@H](C)O)NC(=O)[C@@H]2CCCN2C(=O)[C@@H]2CCCN2C1=O (single isomer, unassigned) [^68Ga-SDYD02, metal not drawn] | −2.47±0.03 | did not undergo competitive chelation | 91 | 92 |
| N#C[C@@H]1CC(F)(F)CN1C(=O)CNC(=O)c1ccnc2ccc(OCCCN3CCN(C(=O)[C@H](CCCCNC(=O)CCN4C(=O)CC(SCC(=O)NCCOCCOCCOCCOCCC(=O)NCCCC[C@@H]5NC(=O)[C@@H](Cc6ccc(O)cc6)NC(=O)[C@H](CC(=O)O)NC(=O)CNC(=O)[C@H](CCCNC(=N)N)NC5=O)C4=O)NC(=O)CCC(C(=O)O)N4CCN(CC(=O)O)CCN(CC(=O)O)CCN(CC(=O)O)CC4)CC3)cc12 (single isomer, unassigned) [^68Ga-SDYD07, metal not drawn] | −2.94±0.15 | – | – | – |
| CCCCCC(=O)N[C@H]1CSCc2cc(CSCCNC(=O)[C@H](CCCCNC(=O)CCN3C(=O)CC(SCC(=O)NCCOCCOCCOCCOCCC(=O)NCCCC[C@@H]4NC(=O)[C@@H](Cc5ccc(O)cc5)NC(=O)[C@H](CC(=O)O)NC(=O)CNC(=O)[C@H](CCCNC(=N)N)NC4=O)C3=O)NC(=O)CCC(C(=O)O)N3CCN(CC(=O)O)CCN(CC(=O)O)CCN(CC(=O)O)CC3)cc(c2)CSC[C@@H](C(=O)O)NC(=O)[C@H](Cc2ccccc2)NC(=O)[C@H](CCC(N)=O)NC(=O)C([C@@H](C)O)NC(=O)[C@@H]2CCCN2C(=O)[C@@H]2CCCN2C1=O (single isomer, unassigned) [^68Ga-SDYD08, metal not drawn] | −3.23±0.16 | – | – | – |
| CCCCCC(=O)N[C@@H]1CSCc2cc(CSCCNC(=O)[C@@H](CCCCNC(=O)CN3CCN(CC(=O)O)CCN(CC(=O)O)CCN(CC(=O)O)CC3)NC(=O)COCCOCCNC(=O)COCCOCCNC(=O)CCN3C(=O)CC(SCCNC(=O)CCC(=O)N[C@@H](CCCNC(=N)N)C(=O)N[C@@H](CCCNC(=N)N)C(=O)N[C@@H](Cc4ccc5ccccc5c4)C(=O)N[C@@H]4CSSC[C@@H](C(=O)N[C@@H](CCCNC(=N)N)C(N)=O)NC(=O)[C@H](CCCNC(N)=O)NC(=O)[C@H](CCCNC(=N)N)NC(=O)[C@H](Cc5ccc(O)cc5)NC(=O)[C@@H]5CCCN5C(=O)[C@H](CCCCN)NC(=O)[C@H](CCCCN)NC(=O)[C@H](CCCNC(N)=O)NC(=O)[C@H](Cc5ccc(O)cc5)NC4=O)C3=O)cc(c2)CSC[C@@H](C(=O)O)NC(=O)[C@H](Cc2ccccc2)NC(=O)[C@H](CCC(N)=O)NC(=O)C([C@@H](C)O)NC(=O)[C@@H]2CCCN2C(=O)[C@@H]2CCCN2C1=O (single isomer, unassigned) [^177Lu-SDYD02, metal not drawn] | −2.35±0.02 | – | – | – |
| N#C[C@@H]1CC(F)(F)CN1C(=O)CNC(=O)c1ccnc2ccc(OCCCN3CCN(C(=O)[C@H](CCCCNC(=O)CCN4C(=O)CC(SCC(=O)NCCOCCOCCOCCOCCC(=O)NCCCC[C@@H]5NC(=O)[C@@H](Cc6ccc(O)cc6)NC(=O)[C@H](CC(=O)O)NC(=O)CNC(=O)[C@H](CCCNC(=N)N)NC5=O)C4=O)NC(=O)CCC(C(=O)O)N4CCN(CC(=O)O)CCN(CC(=O)O)CCN(CC(=O)O)CC4)CC3)cc12 (single isomer, unassigned) [^177Lu-SDYD07, metal not drawn] | −2.71±0.15 | – | – | – |
| CCCCCC(=O)N[C@H]1CSCc2cc(CSCCNC(=O)[C@H](CCCCNC(=O)CCN3C(=O)CC(SCC(=O)NCCOCCOCCOCCOCCC(=O)NCCCC[C@@H]4NC(=O)[C@@H](Cc5ccc(O)cc5)NC(=O)[C@H](CC(=O)O)NC(=O)CNC(=O)[C@H](CCCNC(=N)N)NC4=O)C3=O)NC(=O)CCC(C(=O)O)N3CCN(CC(=O)O)CCN(CC(=O)O)CCN(CC(=O)O)CC3)cc(c2)CSC[C@@H](C(=O)O)NC(=O)[C@H](Cc2ccccc2)NC(=O)[C@H](CCC(N)=O)NC(=O)C([C@@H](C)O)NC(=O)[C@@H]2CCCN2C(=O)[C@@H]2CCCN2C1=O (single isomer, unassigned) [^177Lu-SDYD08, metal not drawn] | −2.82±0.13 | – | – | – |
| CN1C(=O)[C@@H](Cc2ccc(O)cc2)NC(=O)CNC(=O)[C@H](Cc2ccc3ccccc3c2)NC(=O)[C@H](CCCNC(=N)N)NC(=O)[C@H]1CCCNC(=O)c1ccc(CNC(=O)[C@H](CCCCNC(=O)CN2CCN(CC(=O)O)CCN(CC(=O)O)CCN(CC(=O)O)CC2)NC(=O)CCC(=O)NCCOCCOCC(=O)NCCOCCOCC(=O)N2CCN(CCCOc3ccc4nccc(C(=O)NCC(=O)N5CC(F)(F)C[C@H]5C#N)c4c3)CC2)cc1 [^177Lu-SDYD05, metal not drawn] | −2.46±0.05 | – | – | – |
